No constants are given. Whether binding was seen depends on the method and setting. A result given as binding can be weak or reduced; the word gives no strength. For part of these data: In cells and extracts the contact can be indirect.
Key:
[1] = biological target: Mit1 N terminus (OneStrep-tagged, insect cells) (S. pombe) (UniProt Q9P793); assay: pull-down; proteins coexpressed in Sf9 cells; OneStrep-tagged Mit1 constructs captured from the lysate on StrepTactin beads, 1 h at 4°C; 400 mM KCl, 100 mM Tris pH 7.5, 2 mM Mg-acetate, 5 mM β-mercaptoethanol, 0.1% NP40; eluted with desthiobiotin; Clr1MID included to stabilize the Mit1 C terminus
[2] = biological target: Chp2CSD (Gal4 binding domain fusion) (S. pombe) (UniProt O42934); assay: two-hybrid; Chp2 constructs fused to the Gal4 binding domain (pGBKT7, Y2Hgold), Mit1 constructs in pGADT7 (Y187); growth at 30°C on SD/-Trp/-Leu/-His and SD/-Trp/-Leu/-His/-Ade (QDO)
[3] = biological target: Chp2 full length protein (Gal4 binding domain fusion) (S. pombe) (UniProt O42934); assay: as above

Chains of the proteins cited; added tags and fusions are not shown. Lines headed by an entry give the natural chain unless they say otherwise; changes in a name come on top.
UniProt Q9P793: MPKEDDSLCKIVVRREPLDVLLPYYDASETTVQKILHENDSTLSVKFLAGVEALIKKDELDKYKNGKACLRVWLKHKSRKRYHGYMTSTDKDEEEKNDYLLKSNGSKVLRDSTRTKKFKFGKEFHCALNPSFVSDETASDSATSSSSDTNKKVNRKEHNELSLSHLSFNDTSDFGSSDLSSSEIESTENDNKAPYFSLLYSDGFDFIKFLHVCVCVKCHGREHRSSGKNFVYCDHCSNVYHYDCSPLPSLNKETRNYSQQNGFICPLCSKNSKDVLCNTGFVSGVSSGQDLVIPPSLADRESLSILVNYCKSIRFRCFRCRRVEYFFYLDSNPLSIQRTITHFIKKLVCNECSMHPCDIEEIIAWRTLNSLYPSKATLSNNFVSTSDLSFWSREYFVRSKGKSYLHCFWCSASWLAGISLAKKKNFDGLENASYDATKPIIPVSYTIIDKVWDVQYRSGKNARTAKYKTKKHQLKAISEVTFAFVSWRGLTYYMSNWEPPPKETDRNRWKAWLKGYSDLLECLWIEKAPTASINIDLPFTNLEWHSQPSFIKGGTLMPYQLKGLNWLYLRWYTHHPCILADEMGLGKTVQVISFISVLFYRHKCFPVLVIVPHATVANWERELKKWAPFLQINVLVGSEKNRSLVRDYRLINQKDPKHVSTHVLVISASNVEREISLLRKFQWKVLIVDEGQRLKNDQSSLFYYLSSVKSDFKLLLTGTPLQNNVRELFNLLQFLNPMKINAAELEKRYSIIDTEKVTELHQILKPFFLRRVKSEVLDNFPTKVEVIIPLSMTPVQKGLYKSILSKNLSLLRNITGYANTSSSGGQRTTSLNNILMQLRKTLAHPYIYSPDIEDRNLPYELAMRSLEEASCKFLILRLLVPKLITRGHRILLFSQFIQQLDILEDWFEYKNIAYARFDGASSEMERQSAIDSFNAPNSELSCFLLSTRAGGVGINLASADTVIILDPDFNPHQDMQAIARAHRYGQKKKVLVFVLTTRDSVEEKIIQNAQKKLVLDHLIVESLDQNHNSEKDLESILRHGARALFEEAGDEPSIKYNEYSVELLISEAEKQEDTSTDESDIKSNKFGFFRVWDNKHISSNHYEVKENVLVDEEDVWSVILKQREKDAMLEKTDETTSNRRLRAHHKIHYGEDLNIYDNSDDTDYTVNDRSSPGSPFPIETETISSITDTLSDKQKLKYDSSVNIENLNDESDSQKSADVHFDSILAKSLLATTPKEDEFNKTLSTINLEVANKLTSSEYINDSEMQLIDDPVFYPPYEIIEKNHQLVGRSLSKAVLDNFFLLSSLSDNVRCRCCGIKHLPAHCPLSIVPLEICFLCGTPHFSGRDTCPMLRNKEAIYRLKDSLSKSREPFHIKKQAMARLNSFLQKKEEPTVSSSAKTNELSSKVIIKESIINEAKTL
UniProt O42934: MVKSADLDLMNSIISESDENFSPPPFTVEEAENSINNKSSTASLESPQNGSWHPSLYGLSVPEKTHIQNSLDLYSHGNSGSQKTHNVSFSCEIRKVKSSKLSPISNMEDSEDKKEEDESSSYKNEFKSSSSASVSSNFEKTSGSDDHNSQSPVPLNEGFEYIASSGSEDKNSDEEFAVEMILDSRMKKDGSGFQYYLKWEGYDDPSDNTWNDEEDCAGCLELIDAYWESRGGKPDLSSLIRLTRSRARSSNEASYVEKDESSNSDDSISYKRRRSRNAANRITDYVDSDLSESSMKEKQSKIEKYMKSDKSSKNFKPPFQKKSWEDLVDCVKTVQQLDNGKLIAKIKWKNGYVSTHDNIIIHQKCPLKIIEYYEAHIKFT

| binding [1] | binding [2] | binding [3] | Substance |
| --- | --- | --- | --- |
| binds |  |  | Chp2 (T7-tagged, coexpressed in insect cells) (from UniProt O42934 1-380) |
|  | binds | binds | Mit1 N terminus (Gal4 activation domain fusion) (from UniProt Q9P793) (domain or fragment) |

From publication PMC6499331, “Transcriptional gene silencing requires dedicated interaction between HP1 protein Chp2 and chromatin remodeler Mit1” (Genes & Development, 2019)
